Experimental data reported in PMC7260205, “Steric occlusion regulates proximal interactions of acyl carrier protein domain in fungal fatty acid synthase” (Communications Biology, 2020).
These are yes or no findings as the source states them, for the method shown. Some entries that bind do so weakly or less than the wild type.

Sequences of proteins named here, by UniProt entry; tags and fusion partners are left off. A change or cut given only in a name is not applied to a line headed by its entry.
UniProt P07149: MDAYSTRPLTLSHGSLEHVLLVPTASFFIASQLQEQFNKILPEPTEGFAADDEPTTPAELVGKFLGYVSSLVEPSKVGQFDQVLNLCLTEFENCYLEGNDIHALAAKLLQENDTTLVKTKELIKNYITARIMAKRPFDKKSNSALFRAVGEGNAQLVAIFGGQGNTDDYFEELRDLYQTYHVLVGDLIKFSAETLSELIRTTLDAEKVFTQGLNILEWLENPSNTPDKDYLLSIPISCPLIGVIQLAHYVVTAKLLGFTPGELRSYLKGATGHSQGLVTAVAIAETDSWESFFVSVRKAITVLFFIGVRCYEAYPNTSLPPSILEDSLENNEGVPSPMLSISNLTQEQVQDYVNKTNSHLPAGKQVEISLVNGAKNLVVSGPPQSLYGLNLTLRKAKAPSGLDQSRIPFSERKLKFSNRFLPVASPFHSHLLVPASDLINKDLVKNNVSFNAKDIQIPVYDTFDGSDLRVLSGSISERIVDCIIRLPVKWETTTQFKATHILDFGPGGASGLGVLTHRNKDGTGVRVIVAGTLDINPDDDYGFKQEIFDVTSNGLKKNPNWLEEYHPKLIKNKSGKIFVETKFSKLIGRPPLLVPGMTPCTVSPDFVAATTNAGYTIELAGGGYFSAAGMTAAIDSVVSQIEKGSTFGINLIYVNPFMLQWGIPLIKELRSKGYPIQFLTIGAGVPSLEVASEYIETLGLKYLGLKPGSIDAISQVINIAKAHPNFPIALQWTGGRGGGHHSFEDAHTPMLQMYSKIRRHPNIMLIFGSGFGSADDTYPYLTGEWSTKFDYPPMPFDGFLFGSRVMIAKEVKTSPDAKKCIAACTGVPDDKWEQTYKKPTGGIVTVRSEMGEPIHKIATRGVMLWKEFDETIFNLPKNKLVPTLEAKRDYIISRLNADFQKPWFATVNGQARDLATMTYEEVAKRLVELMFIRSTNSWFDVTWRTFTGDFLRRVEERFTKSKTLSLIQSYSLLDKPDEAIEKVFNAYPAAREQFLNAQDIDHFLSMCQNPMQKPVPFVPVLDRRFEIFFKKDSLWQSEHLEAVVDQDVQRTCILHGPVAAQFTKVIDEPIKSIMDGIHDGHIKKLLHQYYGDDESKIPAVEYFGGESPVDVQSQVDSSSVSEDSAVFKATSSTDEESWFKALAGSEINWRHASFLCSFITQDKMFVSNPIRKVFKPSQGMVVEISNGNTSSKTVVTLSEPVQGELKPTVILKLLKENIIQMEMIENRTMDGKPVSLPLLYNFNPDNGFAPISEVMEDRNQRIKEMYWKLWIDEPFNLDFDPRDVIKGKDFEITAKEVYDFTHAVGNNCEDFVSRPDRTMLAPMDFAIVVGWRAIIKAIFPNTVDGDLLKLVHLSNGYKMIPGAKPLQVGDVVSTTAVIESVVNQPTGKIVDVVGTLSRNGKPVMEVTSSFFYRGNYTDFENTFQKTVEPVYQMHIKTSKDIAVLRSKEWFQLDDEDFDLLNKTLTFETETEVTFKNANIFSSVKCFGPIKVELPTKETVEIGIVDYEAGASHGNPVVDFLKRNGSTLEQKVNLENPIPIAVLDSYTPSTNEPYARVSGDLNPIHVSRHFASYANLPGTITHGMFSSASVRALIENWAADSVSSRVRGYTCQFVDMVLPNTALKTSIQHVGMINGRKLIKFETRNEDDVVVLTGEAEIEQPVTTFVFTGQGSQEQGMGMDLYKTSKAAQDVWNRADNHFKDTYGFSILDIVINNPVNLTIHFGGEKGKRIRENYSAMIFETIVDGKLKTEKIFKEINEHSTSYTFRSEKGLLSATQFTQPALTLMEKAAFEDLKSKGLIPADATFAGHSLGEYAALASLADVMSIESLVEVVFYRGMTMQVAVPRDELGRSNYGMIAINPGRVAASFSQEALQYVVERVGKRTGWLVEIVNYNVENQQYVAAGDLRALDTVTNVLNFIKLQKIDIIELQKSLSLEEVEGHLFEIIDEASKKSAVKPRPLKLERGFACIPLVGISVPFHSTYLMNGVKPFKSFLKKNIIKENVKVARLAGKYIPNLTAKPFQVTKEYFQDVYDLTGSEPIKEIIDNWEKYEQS

How the values were obtained:
Test in all cases: cryo-EM structure; FAS1-His6 and FAS2 co-expressed and purified as one complex; 1-2 mg/ml in TBS (50 mM Tris pH 7.4, 150 mM NaCl) on holey gold grids; WT apo or with acetyl-CoA, malonyl-CoA and NADPH; mutants with substrates; D3 symmetrised maps; for H1564A and H740A also symmetry expansion, signal subtraction and focused classification; both purified
[1] = target: S. cerevisiae fatty acid synthase FAS1 polypeptide (β-chain), wild type, C-terminal 6xHis (S. cerevisiae) (UniProt P07149)
[2] = target: S. cerevisiae FAS1 polypeptide (β-chain) S274A S1808A, C-terminal 6xHis (S. cerevisiae) (UniProt P07149)
[3] = target: S. cerevisiae FAS1 polypeptide (β-chain) H740A, C-terminal 6xHis (S. cerevisiae) (UniProt P07149)
[4] = target: S. cerevisiae FAS1 polypeptide (β-chain) H1564A, C-terminal 6xHis (S. cerevisiae) (UniProt P07149)

Molecule | binding [1] | binding [2] | binding [3] | binding [4]
S. cerevisiae FAS2 polypeptide (α-chain) Y839A (from UniProt P19097 1-1887) (enzyme) | binds |  |  | 
S. cerevisiae fatty acid synthase FAS2 polypeptide (α-chain), wild type (enzyme, Fatty acid synthase subunit alpha (FAS2 gene product), S. cerevisiae strain BJ2168, gene amplified from genomic DNA into NcoI-digested pET-15b(+); holds the ACP domain (residues 140-302), KR and KS domains; Serine 180 of the ACP domain is called the phosphopantetheine attachment site; No tag is named for FAS2; also called JWL03; holds the ACP domain; source: E. coli BL21, co-expressed with …) MKPEVEQELAHILLTELLAYQFASPVRWIETQDVFLKDFNTERVVEIGPSPTLAGMAQRTLKNKYESYDAALSLHREILCYSKDAKEIYYTPDPSELAAKEEPAKEEAPAPTPAASAPAPAAAAPAPVAAAAPAAAAAEIADEPVKASLLLHVLVAHKLKKSLDSIPMSKTIKDLVGGKSTVQNEILGDLGKEFGTTPEKPEETPLEELAETFQDTFSGALGKQSSSLLSRLISSKMPGGFTITVARKYLQTRWGLPSGRQDGVLLVALSNEPAARLGSEADAKAFLDSMAQKYASIVGVDLSSAASASGAAGAGAAAGAAMIDAGALEEITKDHKVLARQQLQVLARYLKMDLDNGERKFLKEKDTVAELQAQLDYLNAELGEFFVNGVATSFSRKKARTFDSSWNWAKQSLLSLYFEIIHGVLKNVDREVVSEAINIMNRSNDALIKFMEYHISNTDETKGENYQLVKTLGEQLIENCKQVLDVDPVYKDVAKPTGPKTAIDKNGNITYSEEPREKVRKLSQYVQEMALGGPITKESQPTIEEDLTRVYKAISAQADKQDISSSTRVEFEKLYSDLMKFLESSKEIDPSQTTQLAGMDVEDALDKDSTKEVASLPNKSTISKTVSSTIPRETIPFLHLRKKTPAGDWKYDRQLSSLFLDGLEKAAFNGVTFKDKYVLITGAGKGSIGAEVLQGLLQGGAKVVVTTSRFSKQVTDYYQSIYAKYGAKGSTLIVVPFNQGSKQDVEALIEFIYDTEKNGGLGWDLDAIIPFAAIPEQGIELEHIDSKSEFAHRIMLTNILRMMGCVKKQKSARGIETRPAQVILPMSPNHGTFGGDGMYSESKLSLETLFNRWHSESWANQLTVCGAIIGWTRGTGLMSANNIIAEGIEKMGVRTFSQKEMAFNLLGLLTPEVVELCQKSPVMADLNGGLQFVPELKEFTAKLRKELVETSEVRKAVSIETALEHKVVNGNSADAAYAQVEIQPRANIQLDFPELKPYKQVKQIAPAELEGLLDLERVIVVTGFAEVGPWGSARTRWEMEAFGEFSLEGCVEMAWIMGFISYHNGNLKGRPYTGWVDSKTKEPVDDKDVKAKYETSILEHSGIRLIEPELFNGYNPEKKEMIQEVIVEEDLEPFEASKETAEQFKHQHGDKVDIFEIPETGEYSVKLLKGATLYIPKALRFDRLVAGQIPTGWNAKTYGISDDIISQVDPITLFVLVSVVEAFIASGITDPYEMYKYVHVSEVGNCSGSGMGGVSALRGMFKDRFKDEPVQNDILQESFINTMSAWVNMLLISSSGPIKTPVGACATSVESVDIGVETILSGKARICIVGGYDDFQEEGSFEFGNMKATSNTLEEFEHGRTPAEMSRPATTTRNGFMEAQGAGIQIIMQADLALKMGVPIYGIVAMAATATDKIGRSVPAPGKGILTTAREHHSSVKYASPNLNMKYRKRQLVTREAQIKDWVENELEALKLEAEEIPSEDQNEFLLERTREIHNEAESQLRAAQQQWGNDFYKRDPRIAPLRGALATYGLTIDDLGVASFHGTSTKANDKNESATINEMMKHLGRSEGNPVIGVFQKFLTGHPKGAAGAWMMNGALQILNSGIIPGNRNADNVDKILEQFEYVLYPSKTLKTDGVRAVSITSFGFGQKGGQAIVVHPDYLYGAITEDRYNEYVAKVSAREKSAYKFFHNGMIYNKLFVSKEHAPYTDELEEDVYLDPLARVSKDKKSGSLTFNSKNIQSKDSYINANTIETAKMIENMTKEKVSNGGVGVDVELITSINVENDTFIERNFTPQEIEYCSAQPSVQSSFAGTWSAKEAVFKSLGVKSLGGGAALKDIEIVRVNKNAPAVELHGNAKKAAEEAGVTDVKVSISHDDLQAVAVAVSTKK | binds | binds | binds | binds
